Measurements taken from ChEMBL document CHEMBL4715760, “Balancing potency, metabolic stability and permeability in pyrrolopyrimidine-based EGFR inhibitors” (Eur J Med Chem, 2016).
Values after ≈ are worked out from the molar mass of the structure shown.

Chains of the proteins cited; added tags and fusions are not shown. Lines headed by an entry give the natural chain unless they say otherwise; changes in a name come on top.
UniProt Q12809: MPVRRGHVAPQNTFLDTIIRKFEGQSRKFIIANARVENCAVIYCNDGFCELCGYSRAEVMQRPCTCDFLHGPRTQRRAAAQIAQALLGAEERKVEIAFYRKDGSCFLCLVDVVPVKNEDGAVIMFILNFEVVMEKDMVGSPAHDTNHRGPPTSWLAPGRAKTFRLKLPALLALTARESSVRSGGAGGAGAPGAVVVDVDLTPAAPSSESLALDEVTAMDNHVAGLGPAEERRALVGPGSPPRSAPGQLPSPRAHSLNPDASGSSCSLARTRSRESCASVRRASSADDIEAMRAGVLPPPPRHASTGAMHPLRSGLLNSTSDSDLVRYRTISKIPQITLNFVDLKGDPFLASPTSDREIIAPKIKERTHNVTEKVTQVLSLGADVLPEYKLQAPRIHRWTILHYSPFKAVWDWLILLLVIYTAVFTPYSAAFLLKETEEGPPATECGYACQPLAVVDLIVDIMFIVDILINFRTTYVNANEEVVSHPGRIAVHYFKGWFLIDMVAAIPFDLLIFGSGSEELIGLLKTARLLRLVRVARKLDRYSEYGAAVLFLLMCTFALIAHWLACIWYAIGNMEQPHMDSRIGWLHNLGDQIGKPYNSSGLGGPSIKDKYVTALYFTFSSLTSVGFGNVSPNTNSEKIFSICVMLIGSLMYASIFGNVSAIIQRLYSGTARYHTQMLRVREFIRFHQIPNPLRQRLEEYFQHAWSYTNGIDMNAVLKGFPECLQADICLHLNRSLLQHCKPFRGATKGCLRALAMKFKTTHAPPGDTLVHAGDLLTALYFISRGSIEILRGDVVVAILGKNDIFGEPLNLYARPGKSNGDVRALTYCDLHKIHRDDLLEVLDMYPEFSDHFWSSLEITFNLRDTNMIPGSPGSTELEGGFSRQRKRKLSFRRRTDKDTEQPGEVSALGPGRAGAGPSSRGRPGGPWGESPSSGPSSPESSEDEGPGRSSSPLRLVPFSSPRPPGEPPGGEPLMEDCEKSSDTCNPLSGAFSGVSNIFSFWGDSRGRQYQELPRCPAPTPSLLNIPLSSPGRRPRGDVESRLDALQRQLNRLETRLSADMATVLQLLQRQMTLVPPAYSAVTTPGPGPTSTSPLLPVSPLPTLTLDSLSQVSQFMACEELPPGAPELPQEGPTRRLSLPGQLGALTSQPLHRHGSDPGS

How the values were obtained:
[1] = molecular target: Voltage-gated inwardly rectifying potassium channel KCNH2 (Homo sapiens, UniProt Q12809); assay: Inhibition of human ERG expressed in CHO cells at -80 mV holding potential by IonWorks patch-clamp electrophysiology assay
[2] = physchem; conditions: buffer, pH 7.4

OCc1ccc(-c2cc3c(N[C@H](CO)c4ccccc4)ncnc3[nH]2)cc1
IC50 [1]: > 25 µM
solubility kinetic at 2 h [2]: 37.5 µM (≈ 13.5 µg/mL)
